Binding data for one substance are collected here from paper PMC11118108.

By UniProt entry, the sequences of proteins in these tests, tags left out.
UniProt P46934: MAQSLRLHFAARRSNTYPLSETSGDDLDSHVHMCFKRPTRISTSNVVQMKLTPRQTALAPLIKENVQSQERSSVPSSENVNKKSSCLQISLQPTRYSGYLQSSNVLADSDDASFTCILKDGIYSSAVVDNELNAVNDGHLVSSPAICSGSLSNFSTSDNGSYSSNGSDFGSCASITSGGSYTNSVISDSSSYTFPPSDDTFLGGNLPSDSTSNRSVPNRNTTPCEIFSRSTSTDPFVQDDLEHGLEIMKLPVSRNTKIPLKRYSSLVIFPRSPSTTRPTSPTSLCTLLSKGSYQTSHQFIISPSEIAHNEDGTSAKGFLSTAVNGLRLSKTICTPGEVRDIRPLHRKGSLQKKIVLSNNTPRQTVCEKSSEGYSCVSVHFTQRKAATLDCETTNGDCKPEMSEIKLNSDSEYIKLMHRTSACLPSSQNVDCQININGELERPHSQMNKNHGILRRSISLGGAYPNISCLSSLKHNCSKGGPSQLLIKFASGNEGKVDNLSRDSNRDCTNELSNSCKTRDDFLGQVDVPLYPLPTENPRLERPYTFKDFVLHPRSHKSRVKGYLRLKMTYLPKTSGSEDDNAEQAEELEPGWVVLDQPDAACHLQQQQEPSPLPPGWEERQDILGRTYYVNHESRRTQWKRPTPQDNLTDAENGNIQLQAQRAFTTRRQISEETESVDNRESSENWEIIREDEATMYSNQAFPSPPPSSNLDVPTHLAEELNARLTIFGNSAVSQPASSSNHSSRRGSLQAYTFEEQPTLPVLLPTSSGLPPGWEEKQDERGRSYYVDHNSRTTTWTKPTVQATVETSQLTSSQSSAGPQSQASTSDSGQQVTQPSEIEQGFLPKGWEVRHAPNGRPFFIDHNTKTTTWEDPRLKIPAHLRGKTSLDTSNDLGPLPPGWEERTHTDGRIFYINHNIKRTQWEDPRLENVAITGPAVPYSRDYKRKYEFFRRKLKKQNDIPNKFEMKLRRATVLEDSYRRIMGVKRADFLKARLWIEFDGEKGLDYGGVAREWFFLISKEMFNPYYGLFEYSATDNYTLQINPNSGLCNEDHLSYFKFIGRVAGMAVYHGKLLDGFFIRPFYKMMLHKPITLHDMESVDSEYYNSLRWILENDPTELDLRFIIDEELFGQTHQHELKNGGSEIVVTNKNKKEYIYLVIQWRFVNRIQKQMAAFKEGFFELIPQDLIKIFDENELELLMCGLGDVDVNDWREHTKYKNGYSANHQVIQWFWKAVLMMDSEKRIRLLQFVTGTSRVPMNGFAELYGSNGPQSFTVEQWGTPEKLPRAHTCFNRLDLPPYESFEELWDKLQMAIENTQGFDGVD

These are yes or no findings as the source states them, for the method shown. Binding seen in cells or lysates may run through a third protein. Some binding calls cover weakened binding; strength is not graded here.

The target of experiment [1] is T1, Enoyl-CoA Hydratase Domain Containing 2 (human) (UniProt Q86YB7).
T1 sequence: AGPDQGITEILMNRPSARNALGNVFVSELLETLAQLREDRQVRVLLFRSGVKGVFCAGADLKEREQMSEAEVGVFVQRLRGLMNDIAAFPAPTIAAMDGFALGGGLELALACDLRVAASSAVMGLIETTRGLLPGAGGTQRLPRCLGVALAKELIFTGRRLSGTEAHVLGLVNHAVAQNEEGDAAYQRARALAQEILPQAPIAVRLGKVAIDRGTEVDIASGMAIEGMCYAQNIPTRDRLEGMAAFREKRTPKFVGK
Nature of the experiment: co-IP; total cell lysates incubated with primary antibody at 4 °C overnight, Protein A + G agarose, beads rinsed with PBS, detected by western blotting; precipitating antibody and cell line not stated.

Experiment [2] deals with T2, Methylcrotonyl-CoA Carboxylase Subunit 2 (human (endogenous in gastric cancer cell lines)) (UniProt Q9HCC0).
T2 sequence: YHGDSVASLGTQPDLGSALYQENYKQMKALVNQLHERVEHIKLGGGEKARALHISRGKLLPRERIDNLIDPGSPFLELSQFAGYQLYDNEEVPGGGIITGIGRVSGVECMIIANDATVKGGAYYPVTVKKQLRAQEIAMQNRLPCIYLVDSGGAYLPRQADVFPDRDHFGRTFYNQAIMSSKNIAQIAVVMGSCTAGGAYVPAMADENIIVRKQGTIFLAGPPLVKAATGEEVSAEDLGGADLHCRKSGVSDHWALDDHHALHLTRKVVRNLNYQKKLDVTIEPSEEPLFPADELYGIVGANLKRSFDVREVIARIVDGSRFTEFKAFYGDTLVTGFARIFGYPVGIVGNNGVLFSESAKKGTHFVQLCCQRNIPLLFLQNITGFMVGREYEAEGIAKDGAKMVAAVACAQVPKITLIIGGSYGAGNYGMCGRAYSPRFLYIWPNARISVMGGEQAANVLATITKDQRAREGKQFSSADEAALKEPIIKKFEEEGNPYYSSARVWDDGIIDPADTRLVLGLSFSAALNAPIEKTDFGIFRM
The experiment is described as above.

“E3 ubiquitin ligase NEDD4 (from UniProt P46934 1-1319) (enzyme)”: the binding result in experiment [1] and in experiment [2] was “binds” in each case.
